# Test results as given in article PMC12321133, “scFv intrabody targeting wildtype TDP-43 presents protective effects in a cellular model of TDP-43 proteinopathy” (PLOS One, 2025).
# Chains of the proteins cited; added tags and fusions are not shown.
# UniProt Q13148: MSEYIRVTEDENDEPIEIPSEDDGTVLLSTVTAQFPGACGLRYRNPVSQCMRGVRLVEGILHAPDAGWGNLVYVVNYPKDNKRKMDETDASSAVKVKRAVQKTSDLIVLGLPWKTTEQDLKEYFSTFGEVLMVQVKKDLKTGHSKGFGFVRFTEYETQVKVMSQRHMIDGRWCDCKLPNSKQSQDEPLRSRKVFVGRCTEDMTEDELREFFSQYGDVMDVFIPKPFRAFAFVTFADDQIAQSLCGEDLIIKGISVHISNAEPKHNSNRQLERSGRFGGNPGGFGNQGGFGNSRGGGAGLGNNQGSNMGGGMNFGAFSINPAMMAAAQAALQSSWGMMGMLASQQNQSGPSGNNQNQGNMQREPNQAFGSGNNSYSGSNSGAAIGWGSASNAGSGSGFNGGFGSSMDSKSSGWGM
# Results are given in words; binding and its absence hold for the method and conditions named. Some binding calls cover weakened binding; strength is not graded here. Tags and fused reporters may be left off the sequences shown.
# Key:
# [1] = molecular target: GFP-wtTDP-43-6xHis (human) (UniProt Q13148); assay: ELISA; monoclonal phage ELISA: plates coated with 1.0 µg/mL GFP-6xHis or GFP-wtTDP-43-6xHis; 50 µL phage culture supernatant (TG1, KM13 helper phage) in MPBS, 1 h at RT; detected with HRP-conjugated anti-M13 antibody, absorbance at 450 nm; only the target purified
# [2] = molecular target: commercial recombinant human full-length wtTDP-43 (Abcam, ab224788) (human) (UniProt Q13148); assay: ELISA; indirect ELISA: wells coated overnight at 4 °C with commercial human wtTDP-43 at 1 µg/mL in PBS; purified scFv at 1, 5 or 10 µg/mL, 1 h at RT; detected with HRP-conjugated anti-6xHis antibody, absorbance at 450 nm; both purified
Binder,binding [1],binding [2]
scFv B1 displayed on M13 phage (fused to pIII) (scFv) scFv: MAEVQLVESGGSLVKPGGSLRLSCAASGFTFSNYDMNWVRQAPGKGLEWISDIDGSSRNIYYADFVKGRFTISRDNATNSLYLQMNSLRAEDTAVYYCVRSSYYDNGMDVWGRGTLVTVSSGGGGSGGGGSGGGGSQSVLTQPASVSGSPGQSITISCAGTSSDVGGYDGVSWYQQHPGKAPKLMIYYDSYRPSGVSNRFSGSKSGNTASLTISGLQAEDEADYYCSSYTYYSTRVFGGGTKLAVLG,binds,
"scFv B1, purified (c-myc and 6xHis tags) (scFv, VH of scFv B1 as printed; linker of the HuscI library between VH and VL; VL of scFv B1; Selected from the human synthetic HuscI library; The scFv was moved as an NcoI-NotI fragment from pHEN-HuscI into pET-23NN, which adds c-myc and 6xHis at the 3' end; source: E. coli BL21(DE3)pLysS, pET-23NN vector, purified (Ni-NTA, dialysed in MilliQ water); not shown: c-myc, C-terminal, kept; His6, …) scFv: MAEVQLVESGGSLVKPGGSLRLSCAASGFTFSNYDMNWVRQAPGKGLEWISDIDGSSRNIYYADFVKGRFTISRDNATNSLYLQMNSLRAEDTAVYYCVRSSYYDNGMDVWGRGTLVTVSSGGGGSGGGGSGGGGSQSVLTQPASVSGSPGQSITISCAGTSSDVGGYDGVSWYQQHPGKAPKLMIYYDSYRPSGVSNRFSGSKSGNTASLTISGLQAEDEADYYCSSYTYYSTRVFGGGTKLAVLG",,binds
scFv D7 displayed on M13 phage (fused to pIII) (scFv) scFv: MAEVQLVESGGSLVKPGGSLRLSCAASGFTFSNYYMNWVRQAPGKGLEWISDIYGSSRYISYADFVKGRFTISRDNATNSLYLQMNSLRAEDTAVYYCVRSSSNDGGGMDVWGRGTLVTVSSGGGGSGGGGSGGGGSQSVLTQPASVSGSPGQSITISCAGTSSDVGGNNYVSWYQQHPGKAPKLMIYYDSYRPSGVSNRFSGSKSGNTASLTISGLQAEDEADYYCSSYTYSSTRVFGGGTKLAVLG,binds,
"scFv D7, purified (c-myc and 6xHis tags) (scFv, VH of scFv D7 as printed; linker of the HuscI library between VH and VL; VL of scFv D7; Selected from the human synthetic HuscI library; The scFv was moved as an NcoI-NotI fragment from pHEN-HuscI into pET-23NN, which adds c-myc and 6xHis at the 3' end; source: E. coli BL21(DE3)pLysS, pET-23NN vector, purified (Ni-NTA, dialysed in MilliQ water); not shown: c-myc, C-terminal, kept; His6, …) scFv: MAEVQLVESGGSLVKPGGSLRLSCAASGFTFSNYYMNWVRQAPGKGLEWISDIYGSSRYISYADFVKGRFTISRDNATNSLYLQMNSLRAEDTAVYYCVRSSSNDGGGMDVWGRGTLVTVSSGGGGSGGGGSGGGGSQSVLTQPASVSGSPGQSITISCAGTSSDVGGNNYVSWYQQHPGKAPKLMIYYDSYRPSGVSNRFSGSKSGNTASLTISGLQAEDEADYYCSSYTYSSTRVFGGGTKLAVLG",,binds
